Literature values in US6696432B1, “Combination of dehydroepiandrosterone and aromatase inhibitors and use of this combination to produce a medicament for treating relative and absolute androgen deficiency in men” (Schering Aktiengesellschaft, priority 1996, dated 2004).
Some entries share one result that the patent states for a list of compounds. For at least one compound, name, drawing or mass did not settle the structure.

Test system: prostate-cancer patients
Conditions: age group of male menopause; cited from earlier work

In the case of `CC(O)(CS(=O)(=O)c1ccc(F)cc1)C(=O)Nc1ccc(C#N)c(C(F)(F)F)c1` (centres unmarked) [casodex], the “counterregulatory increase in the serum testosterone concentration compared to the starting value” is given as 50-60%.

For `CC(C)C(=O)Nc1ccc([N+](=O)[O-])c(C(F)(F)F)c1` [flutamide], the “counterregulatory increase in the serum testosterone concentration compared to the starting value” is listed as 50-60%.
